According to publication PMC6757435:
Results are given in words; binding and its absence hold for the method and conditions named. Binding seen in cells or lysates may run through a third protein. Some binding calls cover weakened binding; strength is not graded here.

Protein sequences, listed by entry. Tags and fused reporters are not part of them.
UniProt P27986: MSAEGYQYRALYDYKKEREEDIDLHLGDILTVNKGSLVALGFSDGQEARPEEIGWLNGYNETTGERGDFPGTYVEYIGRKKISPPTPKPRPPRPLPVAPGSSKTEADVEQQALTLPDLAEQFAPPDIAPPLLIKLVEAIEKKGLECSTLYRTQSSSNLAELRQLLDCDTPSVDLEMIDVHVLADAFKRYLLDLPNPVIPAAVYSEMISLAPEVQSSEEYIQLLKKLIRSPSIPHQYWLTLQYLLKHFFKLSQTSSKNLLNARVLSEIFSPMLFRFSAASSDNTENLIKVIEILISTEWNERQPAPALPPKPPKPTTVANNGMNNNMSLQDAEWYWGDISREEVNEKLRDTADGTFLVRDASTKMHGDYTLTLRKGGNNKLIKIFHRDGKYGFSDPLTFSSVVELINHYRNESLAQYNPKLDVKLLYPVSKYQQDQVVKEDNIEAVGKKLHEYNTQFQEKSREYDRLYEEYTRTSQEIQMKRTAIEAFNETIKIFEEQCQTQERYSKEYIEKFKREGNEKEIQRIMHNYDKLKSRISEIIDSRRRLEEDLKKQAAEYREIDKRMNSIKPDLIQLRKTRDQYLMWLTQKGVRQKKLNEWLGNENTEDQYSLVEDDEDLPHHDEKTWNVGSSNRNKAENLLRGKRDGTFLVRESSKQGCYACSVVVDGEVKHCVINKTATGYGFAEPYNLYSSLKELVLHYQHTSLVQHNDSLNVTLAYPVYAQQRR

Biological target: T1, Tuftelin (TUFT1) (human (endogenous in MDA-MB-231)) (UniProt Q9NNX1)
T1 sequence: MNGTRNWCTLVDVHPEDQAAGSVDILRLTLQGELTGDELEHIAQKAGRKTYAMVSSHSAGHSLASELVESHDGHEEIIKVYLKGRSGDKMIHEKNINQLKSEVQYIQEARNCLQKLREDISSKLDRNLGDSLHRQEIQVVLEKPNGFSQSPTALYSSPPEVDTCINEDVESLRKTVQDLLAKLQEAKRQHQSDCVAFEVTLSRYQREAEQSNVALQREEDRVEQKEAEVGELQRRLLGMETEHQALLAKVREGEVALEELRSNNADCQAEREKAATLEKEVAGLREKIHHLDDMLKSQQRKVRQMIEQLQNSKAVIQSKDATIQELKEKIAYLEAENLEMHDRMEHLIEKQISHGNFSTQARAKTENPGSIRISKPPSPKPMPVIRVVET
Assay: co-IP; endogenous proteins in MDA-MB-231 lysate (20 mM Tris-HCl pH 7.4, 150 mM NaCl, 1% Triton X-100); antibody 2 h at 4 °C, protein G Plus-agarose 2 h, five washes with lysis buffer, immunoblot

binding: binds
Substance: p85α (from UniProt P27986 1-724)
